In patent US20200148774A1:
Results are given in words; binding and its absence hold for the method and conditions named. Some entries that bind do so weakly or less than the wild type. Sequences can lack the tags named with a protein.

By UniProt entry, the sequences of proteins in these tests, tags left out. Where a name states a change or a piece, a line headed by the entry shows the natural chain unless it says otherwise.
UniProt Q5QGZ9: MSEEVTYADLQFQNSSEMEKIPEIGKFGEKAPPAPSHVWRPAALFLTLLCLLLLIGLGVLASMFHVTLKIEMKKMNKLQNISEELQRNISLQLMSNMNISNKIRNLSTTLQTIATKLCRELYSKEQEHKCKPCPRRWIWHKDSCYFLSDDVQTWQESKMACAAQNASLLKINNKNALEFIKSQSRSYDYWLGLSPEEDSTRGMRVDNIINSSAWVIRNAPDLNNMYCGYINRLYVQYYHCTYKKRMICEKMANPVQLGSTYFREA

T1: recombinant human CLL-1 extracellular domain (ECD, amino acids 65-265) fused to an N-terminal Flag (human) (UniProt Q5QGZ9)
T1 sequence: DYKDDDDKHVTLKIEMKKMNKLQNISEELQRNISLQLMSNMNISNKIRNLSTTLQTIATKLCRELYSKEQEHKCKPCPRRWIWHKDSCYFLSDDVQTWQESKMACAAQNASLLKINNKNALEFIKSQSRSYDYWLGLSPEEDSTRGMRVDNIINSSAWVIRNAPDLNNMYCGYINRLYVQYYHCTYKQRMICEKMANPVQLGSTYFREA

B1: ch6E7 (antibody, V domains shown)
VH: QVQLQQSGPELVKPGASVKISCKASGYSFTDYYMHWVKQSHIKSLEWIGRINPYNGAAFYSQNFKDKASLTVDKSSSTAYMELHSLTSEDSAVYYCAIERGADLEGYAMDYWGQGTSVTVSS
VL: DIVLTQSPSSLIVSLGQRATISCRASQSVSTSSYNYMHWYQQKPGQPPKLLLKYASNLESGVPARFSGSGSGTDFTLNIHPVEEEDTATYYCQHSWEIPLTFGAGTKLEIK
B2: ch20B1 (antibody, V domains shown)
VH: EVQLQQSGPELVKPGALVKISCKASGYTFTSYDINWLKQRPGQGLEWIGWIYPGDGTTEYNERFKGKATLTADKSSSTAYLQLSSLTSENSAVYFCARSYDYDYAMDYWGQGTSVTVSS
VL: DIVLTQSPAIMSASPGEKVTMTCSASSSISYMYWYQQKPGTSPKRWIYDTSKLASGVPARFSGSGSGTSYSLTISSMEAEDAATYYCHQRSSWTFGGGTKLEIK
B3: ch21C9 (antibody, V domains shown)
VH: EVQLQQSGPELVKPGASVKMSCKASGYTFTDYYLDWVKQSHGESFEWIGRVNPYNGGTIYNQKFKGKATLTVDKSSSTAYMDLNSLTSEDSAVYYCARDHYRYDPLLDYWGQGTTLTVSS
VL: DIQMTQSHKFMSTSVGDRVSITCKASQDVSTAVAWFQQKPGQSPKLLIYSPSYRYTGVPDRFTGSGSGTDFTFTISSVQAEDLAVYYCQQLYSTPYTFGGGTKLEIK
B4: ch28H12 (antibody, V domains shown)
VH: QVQLQQSGAELVKPGASVKLSCTASGFNIKDTYMHWVKQRPEQGLEWIGRIDPANGDTDYDPKFQGKATVTADTSSNTAYLQLSSLTSEDTAVYYCTISGPPYYVMDYWGQGTSVTVSS
VL: DIQMTQSPASLAVSLGQRATISCRASQSVSSSSYSYMHWYQQKPGQPPKLLIKYASNLESGVPARFSGRGSGTDFTLNIHPVEEEDTATYYCQHSWEIPYTFGGGTRLEIK

What was measured:
[1] = target: T1, recombinant human CLL-1 extracellular domain (ECD, amino acids 65-265) fused to an N-terminal Flag (human); assay: SPR (Biacore)
[2] = target: T1, recombinant human CLL-1 extracellular domain (ECD, amino acids 65-265) fused to an N-terminal Flag (human); assay: SPR (Biacore), told in the TDB example

| Binder | binding [1] | binding [2] |
| --- | --- | --- |
| B1 | binds | – |
| B2 | binds | binds |
| B3 | binds | – |
| B4 | binds | – |
